Measured values as given in the supplement of paper PMC11348887.
Structures can show the parent of a compound that is named as a salt. The list shows a part of the results. Small differences around the control level are noise.

What was measured:
Conditions in all cases: 5 µM; treatment: days 7-14 after plating, readout day 21
[1] = tested on: hPSC-derived cortical neurons (WA09); experiment: nucleus area z-score vs screen plate; higher = larger nuclei (more mature)
[2] = tested on: hPSC-derived cortical neurons (WA09); experiment: total neurite length per nucleus (MAP2) z-score; higher = more neurite growth
[3] = tested on: hPSC-derived cortical neurons (WA09); experiment: nucleus roundness z-score vs screen plate; higher = rounder nuclei (more mature)
[4] = tested on: hPSC-derived cortical neurons (WA09); experiment: KCl-induced FOS+/EGR-1+ double-positive nuclei fraction z-score (KCl minus unstimulated); higher = stronger activity-induced IEG response

SMILES | nucleus area z-score [1] | total neurite length per nucleus (z-score) [2] | nucleus roundness z-score [3] | KCl-induced FOS+/EGR-1+ double-positive nuclei fraction z-score [4]
CCC(C)C(NC(=O)C(C(C)CC)N(C)C(C)=O)C(=O)NC(C(=O)NC(CC(C)C)C(=O)C1(C)CO1)C(C)O (configuration not stated) [Epoxomicin] | -15.9 | -5.96 | -2.5 | -1.14
CN[C@@H]1[C@@H](O[C@H]2O[C@H](CO)[C@@H](N)[C@H](O)[C@H]2O)OC2C[C@@H](N)[C@@H](O[C@H]3[C@H](O)[C@@H](O)[C@H](N)C[C@@H]3N)OC2[C@@H]1O (some centres not stated) [Apramycin Sulfate] | -2.37 | 0.0517 | 0.653 | -1.46
COc1ccc2cc3[n+](cc2c1OC)CCc1cc2c(cc1-3)OCO2 [Berberine HCl] | -8.2 | -3.65 | -4.69 | -1.49
O=C(OCC(O)CO)c1ccccc1Nc1ccnc2cc(Cl)ccc12 (configuration not stated) [Glafenine HCl] | -0.0224 | 0.434 | 1.97 | -0.5
CCN1CCN(Cc2ccc(C(=O)Nc3ccc(C)c(Oc4ccc5c(c4)CC(=O)N5)c3)cc2C(F)(F)F)CC1 | -0.79 | -1.19 | -0.492 | 0.179
COc1cc(Cc2cnc(N)nc2N)cc(OC)c1OC [Trimethoprim] | 0.081 | 0.115 | 0.29 | -0.124
COc1c(C)cnc(Cn2cnc3c(Cl)nc(N)nc32)c1C | -2 | -1.74 | -2.41 | -1.72
O=c1n(CCCN2CCN(c3cccc(Cl)c3)CC2)nc2ccccn12 [Trazodone HCl] | -0.256 | 0.0769 | -0.237 | 1.02
O=c1cc[nH]c(=O)[nH]1 [Uracil] | 0.194 | 0.889 | 0.914 | 1.21
CO/N=C(\C(=O)N[C@@H]1C(=O)N2C(C(=O)O)=C(COC(N)=O)CS[C@H]12)c1ccco1 [Cefuroxime sodium] | 0.549 | 0.934 | 0.801 | 1.35
CC(=O)Nc1nc2c(Oc3cc(-c4ccc(C(F)(F)F)cc4)ncn3)cccc2s1 | 0.0521 | 1.2 | 1.39 | 2.09
O=c1c(-c2ccc(O)cc2)coc2c([C@@H]3O[C@H](CO)[C@@H](O)[C@H](O)[C@H]3O)c(O)ccc12 [Puerarin] | -0.45 | 0.614 | -0.125 | 0.667
CCC[C@@H]1C[C@@H](C(=O)N[C@@H]([C@H]2O[C@H](SC)[C@H](O)[C@@H](O)[C@H]2O)[C@H](C)Cl)N(C)C1 [Clindamycin HCl] | 0.987 | 0.927 | 0.336 | 1.6
Cn1cc(-c2ccc(S(=O)(=O)n3ccc(/C=C/C(=O)Nc4ccccc4N)c3)cc2)cn1 | -0.317 | 0.497 | 0.295 | 0.446
C[S+](CC[C@H](N)C(=O)[O-])C[C@H]1O[C@@H](n2cnc3c(N)ncnc32)[C@H](O)[C@@H]1O (some centres not stated) [Ademetionine disulfate tosylate] | 0.736 | 0.171 | 0.0557 | 1.74
CO/N=C(\C(=O)N[C@@H]1C(=O)N2C(C(=O)O)=C(COC(C)=O)CS[C@H]12)c1csc(N)n1 [Cefotaxime sodium] | 1.35 | 1.48 | -0.558 | -0.00495
Cc1c(Cl)cccc1Nc1ccccc1C(=O)O [Tolfenamic Acid] | -1.1 | 0.567 | -0.214 | -0.102
CNS(=O)(=O)CCc1ccc2[nH]cc(C3CCN(C)CC3)c2c1 [Naratriptan] | 1.32 | -0.858 | -1.23 | -0.891
Cc1nnc(C(=O)NC(C)(C)c2nc(C(=O)NCc3ccc(F)cc3)c(O)c(=O)n2C)o1 [Raltegravir (MK-0518)] | 1.39 | -0.462 | 0.715 | -0.581
CCCc1ncc(C[n+]2ccccc2C)c(N)n1 [Amprolium HCl] | -0.314 | 0.536 | 0.5 | -1.07
N=C1NC(=O)/C(=C/c2ccc(O)cc2)S1 [Mirin] | 2.61 | 0.0664 | 0.982 | 0.907
Cc1cccc(N(C)C(=S)Oc2ccc3ccccc3c2)c1 [Tolnaftate] | -0.326 | 0.387 | 0.888 | 0.465
CC(CCc1ccccc1)NCC(O)c1ccc(O)c(C(N)=O)c1 (configuration not stated) [Labetalol HCl] | 1.72 | -0.012 | 0.471 | -0.083
COc1cc2c(cc1OC)C(=O)C(CC1CCN(Cc3ccccc3)CC1)C2 (configuration not stated) [Donepezil HCl] | -1.46 | -0.143 | -0.0629 | -0.733
Cc1ccc(-c2cc(C(F)(F)F)nn2-c2ccc(S(N)(=O)=O)cc2)cc1 [Celecoxib] | 0.05 | -0.561 | 0.197 | -0.404
CC1(C)OC(=O)NC1=O [5,5-Dimethyloxazolidine-2,4-dione] | 0.452 | -0.522 | -1.21 | 1.01
CN1C(CCl)Nc2cc(Cl)c(S(N)(=O)=O)cc2S1(=O)=O (configuration not stated) [Methyclothiazide] | -4.09 | -1.74 | -3.62 | -2.94

Quoted at random: 2 entries already listed
SMILES | nucleus area z-score [1] | total neurite length per nucleus (z-score) [2] | nucleus roundness z-score [3] | KCl-induced FOS+/EGR-1+ double-positive nuclei fraction z-score [4]
COc1cc2c(cc1OC)C(=O)C(CC1CCN(Cc3ccccc3)CC1)C2 (configuration not stated) [Donepezil HCl] | -1.46 | -0.143 | -0.0629 | -0.733
CCN1CCN(Cc2ccc(C(=O)Nc3ccc(C)c(Oc4ccc5c(c4)CC(=O)N5)c3)cc2C(F)(F)F)CC1 | -0.79 | -1.19 | -0.492 | 0.179

Next part:

SMILES | nucleus area z-score [1] | total neurite length per nucleus (z-score) [2] | nucleus roundness z-score [3] | KCl-induced FOS+/EGR-1+ double-positive nuclei fraction z-score [4]
CNC(=O)c1cc(Oc2ccc3nc(N[C@@H]4CCCC[C@H]4O)sc3c2)ccn1 | 0.166 | 0.408 | 0.0257 | 1.89
CNS(=O)(=O)C[C@H]1CC[C@H](N(C)c2[nH]cnc3nccc2-3)CC1 [Oclacitinib] | 0.0619 | -0.451 | 0.952 | -0.228
COc1ccc2c(c1)c(CC(=O)N1CCOCC1)c(C)n2C(=O)c1ccc(Cl)cc1 | 0.29 | 0.686 | 0.684 | 3.06
N=C(N)N [Guanidine HCl] | -0.156 | 0.211 | -0.0206 | -0.484
CN(C(=O)CN(CCO)CC(=O)N(C)C(C)(C)Cc1ccccc1)C(C)(C)Cc1ccccc1 [Oxethazaine] | -2.56 | -1.86 | -1.91 | -0.697
CC(=O)Oc1ccccc1C(=O)O [Aspirin] | 0.46 | 0.615 | 0.235 | -0.0913
COC1=C2C[C@@H](C)C[C@H](OC)[C@H](O)[C@@H](C)/C=C(\C)[C@H](OC(N)=O)[C@@H](OC)/C=C\C=C(/C)C(=O)NC(=CC1=O)C2=O [Geldanamycin] | 0.334 | 2.05 | -1.19 | -1
CN(CCOc1ccc(CC2SC(=O)NC2=O)cc1)c1ccccn1 (configuration not stated) [Rosiglitazone HCl] | 0.858 | -1.41 | -0.724 | -0.151
CN[C@@H]1[C@H](O[C@H]2[C@H](O[C@H]3[C@H](O)[C@@H](O)[C@H](N=C(N)N)[C@@H](O)[C@@H]3N=C(N)N)O[C@@H](C)[C@]2(O)C=O)O[C@@H](CO)[C@H](O)[C@H]1O [Streptomycin sulfate] | -0.413 | 0.917 | 0.408 | -0.0906
O=c1c(-n2ccnn2)c[nH]n1-c1cc(N2CCOCC2)ncn1 [Molidustat (BAY 85-3934)] | 0.0347 | 0.212 | -0.66 | 1.18
CN[C@@H]1[C@H](O)[C@H](NC)[C@H]2O[C@@]3(O)C(=O)C[C@@H](C)O[C@H]3O[C@@H]2[C@H]1O [Spectinomycin HCl] | 0.0524 | 0.684 | 0.214 | 2.02
NC(=O)c1cnccn1 [Pyrazinamide] | -0.00948 | 0.453 | 0.652 | 1.41
COc1ncc(-c2cc(-c3ncc(CN4C[C@@H](C)O[C@@H](C)C4)o3)c3cn[nH]c3c2)cc1NS(C)(=O)=O | -3.23 | -1.47 | -0.0524 | -0.763
COc1ccc(C[C@@H]2c3cc(OC)c(OC)cc3CC[N@+]2(C)CCC(=O)OCCCCCOC(=O)CC[N@@+]2(C)CCc3cc(OC)c(OC)cc3[C@H]2Cc2ccc(OC)c(OC)c2)cc1OC [Cisatracurium Besylate] | 0.638 | 0.653 | -0.753 | -0.0983
Cc1c(-c2ccnn2C)cc(C(=O)NCc2ccc(S(C)(=O)=O)cn2)c(=O)n1-c1cccc(C(F)(F)F)c1 [Alvelestat (AZD9668)] | -0.0245 | 1.17 | 1.33 | 0.787
COc1cc(Nc2nc3ccccc3nc2NS(=O)(=O)c2ccc(NC(=O)c3ccc(C)c(OC)c3)cc2)cc(OC)c1 | 0.585 | 1.46 | 0.351 | -0.385
COCCOc1cnc2ccn([C@H](C)c3nnc4c(F)cc(-c5cnn(C)c5)cn34)c(=O)c2c1 | 0.734 | 0.925 | 0.335 | 2.81
CCOc1cc(C(C)(C)C)ccc1C1=N[C@@](C)(c2ccc(Cl)cc2)[C@@](C)(c2ccc(Cl)cc2)N1C(=O)N1CCN(CCCS(C)(=O)=O)CC1 | -1.5 | 0.885 | 0.979 | -0.383
COc1cc(Nc2c(C#N)cnc3cc(OCCCN4CCN(C)CC4)c(OC)cc23)c(Cl)cc1Cl [Bosutinib (SKI-606)] | 2.41 | 1.25 | -0.871 | -1.21
CN1CCN2c3ccccc3Cc3ccccc3C2C1 (configuration not stated) [Mianserin HCl] | -0.642 | -0.0257 | -0.00362 | 0.635
CCC(NC(C)C)C(O)c1ccc(O)c(O)c1 (configuration not stated) [Isoetharine Mesylate] | -0.244 | 0.167 | -0.0587 | 0.735
CC(C)c1c(C(=O)Nc2ccccc2)c(-c2ccccc2)c(-c2ccc(F)cc2)n1CC[C@@H](O)C[C@@H](O)CC(=O)O [Atorvastatin Calcium] | -4.02 | -0.379 | -3.1 | -1.6
CC(C)C[C@H](NC(=O)c1cc2ccccc2s1)C(=O)N1CCN(C(=O)[C@H](CO)NS(=O)(=O)c2ccc(Cl)cc2Cl)CC1 | 0.0637 | -0.226 | -0.484 | -0.467
CO/N=C(\C(=O)N[C@@H]1C(=O)N2C(C(=O)OCOC(=O)C(C)(C)C)=C(/C=C\c3scnc3C)CS[C@H]12)c1csc(N)n1 [Cefditoren Pivoxil] | 0.283 | 0.182 | 0.242 | -0.062
O=C(NC[C@H](O)CN1CCc2ccccc2C1)c1cc(NC2COC2)ncn1 | 0.202 | -0.166 | 0.219 | 4.16
C[C@@H](O)[C@@H]1NC(=O)[C@H](CCCCN)NC(=O)[C@@H](Cc2c[nH]c3ccccc23)NC(=O)[C@H](Cc2ccccc2)NC(=O)[C@@H](NC(=O)[C@H](N)Cc2ccccc2)CSSC[C@@H](C(=O)N[C@H](CO)[C@@H](C)O)NC1=O [Octreotide Acetate] | -2.74 | 0.00871 | -0.643 | -0.00993
